Test results as given in article PMC7762262.
These are yes or no findings as the source states them, for the method shown. In cells and extracts the contact can be indirect. Some binding calls cover weakened binding; strength is not graded here.

Protein sequences, listed by entry. Tags and fused reporters are not part of them.
UniProt Q9UKI8: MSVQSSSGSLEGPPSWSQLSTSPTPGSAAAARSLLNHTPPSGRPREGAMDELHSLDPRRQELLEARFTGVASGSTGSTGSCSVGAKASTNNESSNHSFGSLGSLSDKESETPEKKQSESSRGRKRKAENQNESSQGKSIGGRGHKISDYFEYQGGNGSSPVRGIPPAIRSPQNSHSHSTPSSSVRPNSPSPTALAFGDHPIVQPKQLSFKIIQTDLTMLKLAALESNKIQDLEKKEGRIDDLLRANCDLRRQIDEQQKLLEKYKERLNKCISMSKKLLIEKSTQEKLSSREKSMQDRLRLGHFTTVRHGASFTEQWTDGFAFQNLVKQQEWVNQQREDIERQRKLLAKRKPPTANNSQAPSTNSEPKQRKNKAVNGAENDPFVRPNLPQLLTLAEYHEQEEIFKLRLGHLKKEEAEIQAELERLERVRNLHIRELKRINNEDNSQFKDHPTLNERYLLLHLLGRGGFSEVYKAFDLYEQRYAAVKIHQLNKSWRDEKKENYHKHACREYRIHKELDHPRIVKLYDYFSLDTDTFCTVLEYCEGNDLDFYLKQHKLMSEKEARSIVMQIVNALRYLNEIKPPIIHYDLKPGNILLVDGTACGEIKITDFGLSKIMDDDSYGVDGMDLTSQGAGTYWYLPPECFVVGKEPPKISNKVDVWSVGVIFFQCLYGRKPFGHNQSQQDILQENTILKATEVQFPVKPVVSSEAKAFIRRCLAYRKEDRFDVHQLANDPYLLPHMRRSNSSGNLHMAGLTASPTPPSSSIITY
UniProt P46937: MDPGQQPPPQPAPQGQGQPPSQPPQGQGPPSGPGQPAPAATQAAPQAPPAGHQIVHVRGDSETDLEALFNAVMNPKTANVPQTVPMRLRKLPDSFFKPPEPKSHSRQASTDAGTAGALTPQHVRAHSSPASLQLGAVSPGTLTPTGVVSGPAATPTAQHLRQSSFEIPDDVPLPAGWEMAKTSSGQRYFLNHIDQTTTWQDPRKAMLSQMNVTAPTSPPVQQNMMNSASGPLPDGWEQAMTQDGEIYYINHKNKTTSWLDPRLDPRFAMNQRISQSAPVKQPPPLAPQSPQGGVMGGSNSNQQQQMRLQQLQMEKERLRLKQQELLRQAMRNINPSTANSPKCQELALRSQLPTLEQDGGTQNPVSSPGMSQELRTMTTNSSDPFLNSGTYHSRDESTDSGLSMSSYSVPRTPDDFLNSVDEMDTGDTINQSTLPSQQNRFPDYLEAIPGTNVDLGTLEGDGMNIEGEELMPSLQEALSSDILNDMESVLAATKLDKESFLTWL

Target: T1, never in mitosis gene A (NIMA)-related kinase 1 (NEK1) (UniProt Q96PY6)
T1 sequence: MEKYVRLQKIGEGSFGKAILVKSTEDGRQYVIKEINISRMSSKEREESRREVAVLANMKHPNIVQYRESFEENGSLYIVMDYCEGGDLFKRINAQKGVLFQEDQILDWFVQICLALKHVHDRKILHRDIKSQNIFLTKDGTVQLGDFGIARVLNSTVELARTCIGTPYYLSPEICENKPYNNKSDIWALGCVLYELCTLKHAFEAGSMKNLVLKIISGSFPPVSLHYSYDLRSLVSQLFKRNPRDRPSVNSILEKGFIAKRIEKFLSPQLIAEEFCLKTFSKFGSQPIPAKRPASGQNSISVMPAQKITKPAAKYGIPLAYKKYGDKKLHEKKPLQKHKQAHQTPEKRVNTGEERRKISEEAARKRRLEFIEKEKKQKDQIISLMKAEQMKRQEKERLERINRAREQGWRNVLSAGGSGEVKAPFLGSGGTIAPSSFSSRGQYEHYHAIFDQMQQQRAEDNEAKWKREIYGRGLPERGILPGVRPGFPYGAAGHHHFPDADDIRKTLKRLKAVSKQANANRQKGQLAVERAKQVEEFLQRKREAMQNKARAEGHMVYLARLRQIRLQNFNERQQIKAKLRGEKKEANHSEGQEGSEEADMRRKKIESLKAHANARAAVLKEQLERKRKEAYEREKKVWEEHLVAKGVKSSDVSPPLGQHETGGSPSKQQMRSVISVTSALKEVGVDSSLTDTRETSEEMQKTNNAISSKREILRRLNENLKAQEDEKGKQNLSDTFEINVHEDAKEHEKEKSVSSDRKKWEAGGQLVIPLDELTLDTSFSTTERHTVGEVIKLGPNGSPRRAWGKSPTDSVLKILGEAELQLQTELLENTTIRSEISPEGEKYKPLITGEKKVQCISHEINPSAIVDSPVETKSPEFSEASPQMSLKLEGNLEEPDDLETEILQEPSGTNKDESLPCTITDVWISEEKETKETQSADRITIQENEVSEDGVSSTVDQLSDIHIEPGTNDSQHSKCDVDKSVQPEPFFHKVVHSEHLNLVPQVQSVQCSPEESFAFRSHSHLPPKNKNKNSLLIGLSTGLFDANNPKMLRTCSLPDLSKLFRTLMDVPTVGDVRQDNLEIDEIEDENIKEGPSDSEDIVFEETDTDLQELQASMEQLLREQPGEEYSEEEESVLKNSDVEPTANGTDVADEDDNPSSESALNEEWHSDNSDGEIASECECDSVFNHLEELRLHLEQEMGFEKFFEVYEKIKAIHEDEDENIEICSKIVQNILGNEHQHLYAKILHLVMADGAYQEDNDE
Test: co-IP; mouse anti-NEK1 antibody (or mouse IgG) on protein A/G agarose; 500 µg of lysate in 1X RIPA buffer, overnight at 4 °C; beads washed thrice; Western blot; cells with or without 10 µM THD (TLK inhibitor)

| binding | Substance |
| --- | --- |
| binds | tousled-like kinase 1 (TLK1) (from UniProt Q9UKI8 1-766) |
| binds | yes-associated protein 1 (YAP1) (from UniProt P46937 1-504) |
